Data from the supplement of paper PMC11006884.
What follows is the remainder of the data, with few or none of the targets with a hit. The data scatter; read single values as rough. Only a part is listed here, and it is no random draw.

Sequences of proteins named here, by UniProt entry; tags and fusion partners are left off. A change or cut given only in a name is not applied to a line headed by its entry.
UniProt Q8N653: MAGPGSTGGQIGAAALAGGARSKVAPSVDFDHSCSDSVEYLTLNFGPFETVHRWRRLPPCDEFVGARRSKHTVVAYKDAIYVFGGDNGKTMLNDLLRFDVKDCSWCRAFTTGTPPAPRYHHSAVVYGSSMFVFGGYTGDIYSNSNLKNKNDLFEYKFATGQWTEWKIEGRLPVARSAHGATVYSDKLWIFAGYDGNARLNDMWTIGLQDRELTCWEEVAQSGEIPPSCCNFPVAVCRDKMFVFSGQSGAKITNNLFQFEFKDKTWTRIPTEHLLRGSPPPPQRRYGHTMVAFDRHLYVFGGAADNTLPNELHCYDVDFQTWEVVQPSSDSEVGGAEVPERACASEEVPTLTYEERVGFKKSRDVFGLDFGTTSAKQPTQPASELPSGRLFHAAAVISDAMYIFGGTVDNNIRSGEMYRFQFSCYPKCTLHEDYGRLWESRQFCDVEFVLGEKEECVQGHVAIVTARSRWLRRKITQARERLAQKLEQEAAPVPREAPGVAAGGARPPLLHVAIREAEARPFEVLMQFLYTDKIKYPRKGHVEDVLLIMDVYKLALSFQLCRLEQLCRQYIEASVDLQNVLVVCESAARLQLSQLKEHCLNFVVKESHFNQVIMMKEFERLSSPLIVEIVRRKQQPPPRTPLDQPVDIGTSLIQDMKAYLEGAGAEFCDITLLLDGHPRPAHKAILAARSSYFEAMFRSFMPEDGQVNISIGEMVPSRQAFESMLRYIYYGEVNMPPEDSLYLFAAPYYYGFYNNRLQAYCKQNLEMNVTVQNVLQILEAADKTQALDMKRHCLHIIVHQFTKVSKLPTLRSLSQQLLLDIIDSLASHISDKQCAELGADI
UniProt Q8NFC6: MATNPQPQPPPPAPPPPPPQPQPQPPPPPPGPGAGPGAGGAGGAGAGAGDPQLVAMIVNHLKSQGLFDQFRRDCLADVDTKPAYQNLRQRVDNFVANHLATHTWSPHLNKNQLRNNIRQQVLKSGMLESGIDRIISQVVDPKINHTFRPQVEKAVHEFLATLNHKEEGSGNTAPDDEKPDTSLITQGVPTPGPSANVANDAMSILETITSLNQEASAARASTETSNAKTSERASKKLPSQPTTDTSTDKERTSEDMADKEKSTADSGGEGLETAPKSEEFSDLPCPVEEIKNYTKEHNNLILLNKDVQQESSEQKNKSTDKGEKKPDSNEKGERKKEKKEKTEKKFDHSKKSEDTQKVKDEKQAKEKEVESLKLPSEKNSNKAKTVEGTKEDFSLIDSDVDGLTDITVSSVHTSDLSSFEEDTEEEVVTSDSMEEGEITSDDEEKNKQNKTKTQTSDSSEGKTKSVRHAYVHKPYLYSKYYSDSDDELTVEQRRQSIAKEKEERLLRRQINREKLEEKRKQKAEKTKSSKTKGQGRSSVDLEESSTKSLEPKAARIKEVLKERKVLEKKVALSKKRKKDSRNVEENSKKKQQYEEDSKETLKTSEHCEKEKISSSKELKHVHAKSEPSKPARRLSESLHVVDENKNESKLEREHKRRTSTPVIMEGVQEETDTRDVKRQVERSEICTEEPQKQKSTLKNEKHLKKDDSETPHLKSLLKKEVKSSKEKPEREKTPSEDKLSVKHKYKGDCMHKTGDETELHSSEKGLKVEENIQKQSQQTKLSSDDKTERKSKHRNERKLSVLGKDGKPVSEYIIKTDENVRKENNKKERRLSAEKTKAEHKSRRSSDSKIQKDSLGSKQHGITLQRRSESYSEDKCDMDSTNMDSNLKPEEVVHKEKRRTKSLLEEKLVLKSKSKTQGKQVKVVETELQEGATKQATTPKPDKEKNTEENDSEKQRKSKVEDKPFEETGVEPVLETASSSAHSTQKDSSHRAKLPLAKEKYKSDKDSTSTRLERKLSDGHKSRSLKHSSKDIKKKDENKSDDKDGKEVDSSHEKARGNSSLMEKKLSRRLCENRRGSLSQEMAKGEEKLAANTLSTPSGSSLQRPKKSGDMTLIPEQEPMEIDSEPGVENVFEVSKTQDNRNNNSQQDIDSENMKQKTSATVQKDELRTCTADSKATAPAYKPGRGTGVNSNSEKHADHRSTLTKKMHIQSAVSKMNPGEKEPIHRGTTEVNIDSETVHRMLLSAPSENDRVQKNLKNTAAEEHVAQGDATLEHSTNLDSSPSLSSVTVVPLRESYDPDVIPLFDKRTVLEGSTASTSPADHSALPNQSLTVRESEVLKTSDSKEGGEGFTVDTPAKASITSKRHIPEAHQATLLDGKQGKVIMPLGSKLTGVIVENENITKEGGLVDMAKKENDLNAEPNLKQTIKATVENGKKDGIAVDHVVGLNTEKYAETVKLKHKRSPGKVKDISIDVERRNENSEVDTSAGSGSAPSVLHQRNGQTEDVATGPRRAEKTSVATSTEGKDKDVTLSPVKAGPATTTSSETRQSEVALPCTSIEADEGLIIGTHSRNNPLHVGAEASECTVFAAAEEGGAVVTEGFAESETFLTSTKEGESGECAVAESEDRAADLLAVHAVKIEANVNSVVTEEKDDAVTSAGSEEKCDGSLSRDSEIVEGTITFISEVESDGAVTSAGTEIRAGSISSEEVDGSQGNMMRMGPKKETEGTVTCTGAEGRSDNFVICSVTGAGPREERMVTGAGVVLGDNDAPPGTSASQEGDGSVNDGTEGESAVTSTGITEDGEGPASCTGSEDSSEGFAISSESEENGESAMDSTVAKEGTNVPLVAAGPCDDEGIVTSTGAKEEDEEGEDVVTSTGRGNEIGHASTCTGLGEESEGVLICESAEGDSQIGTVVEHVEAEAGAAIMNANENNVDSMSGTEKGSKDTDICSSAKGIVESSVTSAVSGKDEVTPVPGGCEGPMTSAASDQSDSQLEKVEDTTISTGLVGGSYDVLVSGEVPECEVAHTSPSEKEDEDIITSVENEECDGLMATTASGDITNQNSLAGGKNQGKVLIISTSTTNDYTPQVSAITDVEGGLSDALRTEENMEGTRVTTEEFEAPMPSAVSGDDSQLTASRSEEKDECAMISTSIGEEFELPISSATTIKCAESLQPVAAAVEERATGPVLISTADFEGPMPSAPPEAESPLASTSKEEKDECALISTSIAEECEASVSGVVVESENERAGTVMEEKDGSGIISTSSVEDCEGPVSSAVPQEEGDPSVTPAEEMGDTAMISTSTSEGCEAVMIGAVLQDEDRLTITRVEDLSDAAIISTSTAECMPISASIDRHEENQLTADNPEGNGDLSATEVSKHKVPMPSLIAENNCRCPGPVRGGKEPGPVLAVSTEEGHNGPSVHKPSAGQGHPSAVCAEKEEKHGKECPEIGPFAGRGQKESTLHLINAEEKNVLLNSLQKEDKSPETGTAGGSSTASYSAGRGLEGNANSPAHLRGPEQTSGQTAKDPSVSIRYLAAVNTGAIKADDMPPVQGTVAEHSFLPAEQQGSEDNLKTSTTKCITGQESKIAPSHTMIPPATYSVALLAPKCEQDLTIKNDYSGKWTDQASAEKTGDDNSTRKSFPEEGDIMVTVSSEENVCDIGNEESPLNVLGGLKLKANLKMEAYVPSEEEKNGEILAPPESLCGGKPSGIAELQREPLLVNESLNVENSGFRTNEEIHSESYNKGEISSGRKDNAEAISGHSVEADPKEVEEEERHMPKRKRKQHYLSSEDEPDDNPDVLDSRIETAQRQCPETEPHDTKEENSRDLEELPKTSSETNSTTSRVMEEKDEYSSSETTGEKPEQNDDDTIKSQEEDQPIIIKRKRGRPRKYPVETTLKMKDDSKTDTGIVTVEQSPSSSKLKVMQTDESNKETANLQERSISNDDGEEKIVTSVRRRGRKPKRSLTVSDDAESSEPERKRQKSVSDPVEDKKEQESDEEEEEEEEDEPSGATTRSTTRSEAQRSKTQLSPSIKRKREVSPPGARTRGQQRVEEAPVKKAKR
UniProt Q8ND24: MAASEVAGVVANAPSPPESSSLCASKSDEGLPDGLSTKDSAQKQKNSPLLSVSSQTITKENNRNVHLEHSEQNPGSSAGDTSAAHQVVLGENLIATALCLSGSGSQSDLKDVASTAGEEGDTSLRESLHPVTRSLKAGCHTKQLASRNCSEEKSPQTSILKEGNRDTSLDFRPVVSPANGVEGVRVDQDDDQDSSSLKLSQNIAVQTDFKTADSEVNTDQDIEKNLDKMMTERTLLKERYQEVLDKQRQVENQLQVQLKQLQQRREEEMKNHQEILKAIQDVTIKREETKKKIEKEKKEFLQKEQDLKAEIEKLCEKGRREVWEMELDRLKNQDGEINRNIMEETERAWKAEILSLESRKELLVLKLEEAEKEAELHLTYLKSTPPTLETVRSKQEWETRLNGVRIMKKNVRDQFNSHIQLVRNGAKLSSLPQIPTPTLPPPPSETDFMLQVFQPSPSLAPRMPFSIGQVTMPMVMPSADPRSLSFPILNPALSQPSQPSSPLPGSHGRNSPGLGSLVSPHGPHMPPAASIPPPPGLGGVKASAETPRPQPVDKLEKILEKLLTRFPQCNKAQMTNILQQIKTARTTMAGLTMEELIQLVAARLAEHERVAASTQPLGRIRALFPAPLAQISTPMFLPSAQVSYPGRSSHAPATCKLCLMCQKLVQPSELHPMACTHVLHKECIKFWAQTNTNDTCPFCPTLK
UniProt Q8N954: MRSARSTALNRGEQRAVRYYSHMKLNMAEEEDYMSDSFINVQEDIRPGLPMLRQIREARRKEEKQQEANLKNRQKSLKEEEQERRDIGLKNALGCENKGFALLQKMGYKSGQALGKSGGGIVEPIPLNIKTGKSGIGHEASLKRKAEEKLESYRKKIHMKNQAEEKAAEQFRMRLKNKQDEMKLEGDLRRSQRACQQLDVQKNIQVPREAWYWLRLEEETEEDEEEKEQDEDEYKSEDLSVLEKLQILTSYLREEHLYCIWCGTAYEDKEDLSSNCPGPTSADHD
UniProt Q8N3R9: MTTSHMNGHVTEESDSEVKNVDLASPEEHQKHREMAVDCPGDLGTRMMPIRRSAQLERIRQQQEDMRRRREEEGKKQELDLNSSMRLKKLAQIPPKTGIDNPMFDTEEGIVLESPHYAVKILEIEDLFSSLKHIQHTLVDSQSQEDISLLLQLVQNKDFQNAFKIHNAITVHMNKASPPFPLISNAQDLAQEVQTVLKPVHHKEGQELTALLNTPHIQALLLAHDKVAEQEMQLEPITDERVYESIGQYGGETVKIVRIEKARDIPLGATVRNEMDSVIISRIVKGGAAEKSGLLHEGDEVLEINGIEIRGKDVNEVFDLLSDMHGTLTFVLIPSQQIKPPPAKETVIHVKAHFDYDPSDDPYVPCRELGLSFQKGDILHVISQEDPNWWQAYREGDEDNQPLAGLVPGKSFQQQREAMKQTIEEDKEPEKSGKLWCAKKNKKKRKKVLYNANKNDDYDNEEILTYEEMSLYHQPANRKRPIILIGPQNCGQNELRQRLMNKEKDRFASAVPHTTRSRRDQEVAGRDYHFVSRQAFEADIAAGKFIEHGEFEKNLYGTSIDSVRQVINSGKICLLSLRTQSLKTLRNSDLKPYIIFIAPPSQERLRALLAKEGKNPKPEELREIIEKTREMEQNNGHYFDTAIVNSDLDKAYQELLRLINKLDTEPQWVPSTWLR
UniProt Q8NDD1: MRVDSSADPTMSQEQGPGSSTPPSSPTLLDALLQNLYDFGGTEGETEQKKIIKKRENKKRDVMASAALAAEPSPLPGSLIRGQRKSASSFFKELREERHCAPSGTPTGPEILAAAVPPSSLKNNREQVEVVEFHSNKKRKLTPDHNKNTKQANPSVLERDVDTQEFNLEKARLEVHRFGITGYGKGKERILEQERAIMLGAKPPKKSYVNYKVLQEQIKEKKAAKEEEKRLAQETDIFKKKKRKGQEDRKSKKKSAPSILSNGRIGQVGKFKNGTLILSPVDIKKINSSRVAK
UniProt Q8ND82: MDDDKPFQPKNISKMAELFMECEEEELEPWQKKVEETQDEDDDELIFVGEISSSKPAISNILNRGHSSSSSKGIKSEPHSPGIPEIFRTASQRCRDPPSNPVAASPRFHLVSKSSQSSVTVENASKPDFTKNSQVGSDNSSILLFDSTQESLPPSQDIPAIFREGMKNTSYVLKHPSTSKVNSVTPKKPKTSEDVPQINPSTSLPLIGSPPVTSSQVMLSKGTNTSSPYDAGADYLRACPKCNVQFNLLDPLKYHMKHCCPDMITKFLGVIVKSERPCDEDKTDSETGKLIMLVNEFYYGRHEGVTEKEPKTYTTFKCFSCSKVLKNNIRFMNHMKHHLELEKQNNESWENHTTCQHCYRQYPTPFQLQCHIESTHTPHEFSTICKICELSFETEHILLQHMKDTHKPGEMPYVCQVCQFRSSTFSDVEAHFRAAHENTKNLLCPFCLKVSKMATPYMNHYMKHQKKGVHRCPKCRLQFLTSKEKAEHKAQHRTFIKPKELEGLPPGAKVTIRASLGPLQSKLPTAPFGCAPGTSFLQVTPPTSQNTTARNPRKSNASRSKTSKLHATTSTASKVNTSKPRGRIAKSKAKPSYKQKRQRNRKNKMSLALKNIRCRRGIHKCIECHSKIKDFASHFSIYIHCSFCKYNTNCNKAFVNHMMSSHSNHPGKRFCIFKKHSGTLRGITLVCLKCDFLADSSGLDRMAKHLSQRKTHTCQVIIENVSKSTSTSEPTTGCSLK

Compound: COC(=O)/C=C/c1ccccc1 [methyl cinnamate]
Test: log2 ratio of iodoacetamide-alkyne labeling of the cysteine site, DMSO over compound (competition); higher = stronger covalent engagement of the cysteine by the compound, active = 1 or more
Conditions: 500 µM; treatment time 1 h; system: HEK293T cell lysate
In short: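 After 1 h at ambient temperature with vehicle or electrophile (500 µM), HEK293T lysate (2 mg/mL) was labelled for 1 h with iodoacetamide alkyne and clicked to sCIP-TMT reagents. Pooled samples were trypsin-digested overnight at 37 °C, streptavidin-enriched, acid-eluted and analysed by Orbitrap Eclipse LC-MS/MS with FAIMS, then quantified in FragPipe over three replicates with duplicate channels. A cysteine's log2 competition ratio is its mean control-channel over mean compound-channel reporter intensity. Cysteines quantified in only one replicate were not included.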

Target | log2 ratio of iodoacetamide-alkyne labeling
GSTCD C335 (UniProt Q8NEC7) | inactive: -0.0208
NEDD1 C541 (UniProt Q8NHV4) | inactive: 0.0951
ZCCHC7 C524 (UniProt Q8N3Z6) | inactive: 0.184
UniProt Q8NC60_C393 | inactive: -0.0476
NUP35 C255 (UniProt Q8NFH5) | inactive: 0.191
LZTR1 C342 (UniProt Q8N653) | inactive: 0.153
UniProt Q8NFC6_C686 | inactive: 0.588
TOR1AIP2 C468 (UniProt Q8NFQ8) | inactive: 0.0962
UniProt Q8N163_C324 | inactive: 0.0428
SMAP2 C196 (UniProt Q8WU79) | inactive: -0.000945
RNF214 C149 (UniProt Q8ND24) | inactive: 0.212
AHCTF1 C693 (UniProt Q8WYP5) | inactive: 0.243
UniProt Q8N0X7_C405 | inactive: 0.158
BBX C599 (UniProt Q8WY36) | inactive: 0.152
UniProt Q8N954_C95 | inactive: 0.385
UniProt Q8N0Z3_C818 | inactive: 0.356
ARL6IP6 C48 (UniProt Q8N6S5) | inactive: 0.265
ABCF1 C741 (UniProt Q8NE71) | inactive: 0.248
PHF10 C134 (UniProt Q8WUB8) | inactive: 0.379

Target | log2 ratio of iodoacetamide-alkyne labeling
NHLRC2 C716 (UniProt Q8NBF2) | inactive: 0.234
FBXO30 C396 (UniProt Q8TB52) | inactive: 0.0458
MPP5 C366 (UniProt Q8N3R9) | inactive: 0.216
PALLD C964 (UniProt Q8WX93) | inactive: 0.369
RNF214 C655 (UniProt Q8ND24) | inactive: 0.24
RNF10 C483 (UniProt Q8N5U6) | inactive: 0.316
UniProt Q8WZ64_C1635 | inactive: 0.297
INTS1 C185 (UniProt Q8N201) | inactive: -0.123
MPP5 C490 (UniProt Q8N3R9) | inactive: 0.0682
C1orf131 C100 (UniProt Q8NDD1) | inactive: 0.394
PPM1E C4 (UniProt Q8WY54) | inactive: 0.231
NEK9 C11 (UniProt Q8TD19) | inactive: 0.406
UniProt Q8WU20_C415 | inactive: 0.215
NPLOC4 C188 (UniProt Q8TAT6) | inactive: -0.022
MTMR14 C429 (UniProt Q8NCE2) | inactive: 0.128
FLAD1 C236 (UniProt Q8NFF5) | inactive: 0.103
ZNF280C C530 (UniProt Q8ND82) | inactive: 0.138
UniProt Q8N0X7_C272 | inactive: 0.0955

Reprinted at random: 2 entries already listed
Target | log2 ratio of iodoacetamide-alkyne labeling
RNF214 C655 (UniProt Q8ND24) | inactive: 0.24
RNF10 C483 (UniProt Q8N5U6) | inactive: 0.316
